# Assay results published in the supplement of paper PMC9015667.
# The list shows a part of the results. Repeats are few or missing, and single values can be far off.
# System: UACC62P (parental melanoma line)
# Assay: reduction in cell viability relative to untreated/vehicle; higher = more growth inhibition
# Details: 200 nM; 72 h
row,Compound,reduction in cell viability [%]
1,O=c1[nH]c(=O)n([C@H]2C[C@H](O)[C@@H](CO)O2)cc1C(F)(F)F [Trifluridine],< 0
2,C[C@@H](Oc1cc(-n2cnc3ccc(CN4CCN(C)CC4)cc32)sc1C(N)=O)c1ccccc1C(F)(F)F,21.9
3,Cc1ccc(S(=O)(=O)N[C@@H](Cc2ccccc2)C(=O)CCl)cc1,< 0
4,Cn1cc(C2=C(c3ccc(Cl)cc3Cl)C(=O)NC2=O)c2ccccc21,< 0
5,CCc1c2c(nc3ccc(O)cc13)-c1cc3c(c(=O)n1C2)COC(=O)[C@]3(O)CC,61.4
6,CCC1(c2ccccc2)C(=O)NCNC1=O [Primidone],< 0
7,O=C1CN2Cc3c(ccc(Cl)c3Cl)N=C2N1 [anagrelide],< 0
8,O=NN(CCCl)C(=O)NC1CCCCC1 [Lomustine],< 0
9,COC(=O)Nc1nc2cc(C(=O)c3ccccc3)ccc2[nH]1 [Mebendazole],38.6
10,O=C(c1ccc(F)c(F)c1Nc1ccc(I)cc1F)N1CC(O)([C@@H]2CCCCN2)C1,61.9
11,NC(=O)c1ccc(I)c([N+](=O)[O-])c1 [Iniparib],< 0
12,CCn1c(=O)c2c(nc(/C=C/c3ccc(OC)c(OC)c3)n2C)n(CC)c1=O [Istradefylline],0.74
13,Cc1ccc2c(=O)c3cccc(CC(=O)O)c3oc2c1C [Vadimezan],< 0
14,Cc1cc(C(C)Nc2ccccc2)c2nc(N3CCOCC3)cc(=O)n2c1 (stereo unspecified),6.6
15,O=NN(CCCl)C(=O)NCCCl [Carmustine],< 0
16,NC(=O)[C@@H](CCC(F)(F)F)N(Cc1ccc(-c2ncon2)cc1F)S(=O)(=O)c1ccc(Cl)cc1 [Avagacestat],< 0

# For reference, 2 of the compounds above:
row,Compound,reduction in cell viability [%]
4,Cn1cc(C2=C(c3ccc(Cl)cc3Cl)C(=O)NC2=O)c2ccccc21,< 0
5,CCc1c2c(nc3ccc(O)cc13)-c1cc3c(c(=O)n1C2)COC(=O)[C@]3(O)CC,61.4
